# Data as given in PubChem BioAssay AID504467 (National Center for Advancing Translational Sciences (NCATS), 2011).
# The campaign covered roughly 330,000 compounds. About 7,700 (2.3%) were called active. The inconclusive results got no clear call from the source; some entries with a clear call stand among them for comparison. The call rests on the fitted dose curve; in most records, active means well fitted inhibition curve with a large enough effect; inconclusive means small, poorly fitted or top-dose-only effect, or effect the other way; inactive means flat fitted curve, though single readings scatter. Potencies of inconclusive entries are doubtful fits and often do not repeat.
# Experiment: qHTS screen for small molecules that inhibit ELG1-dependent DNA repair in human embryonic kidney (HEK293T) cells expressing luciferase-tagged ELG1; further: nearly all actives have a fitted effect of over 55% in size
# Details: HEK293T ELG1-luciferase reporter, luminescence, 16 h, DNA damage induced by 5-fluorouridine; activity change, negative = inhibition: at 46.1 µM (top of the series)
# Summary of the method: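 HEK293T cells expressing luciferase-tagged ELG1 (2,000/well) received 5-Fluorouridine plus compound or DMSO for 16 hr at 37 °C. Luciferase was read by ONE-Glo luminescence after 30 min at room temperature.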
# On the % scale 0 is the no-effect control and ±100 the full control effect; potency means the concentration at half of the fitted maximal effect.
SMILES,"activity change, negative = inhibition",Potency
CCCNC(=O)C/C(C)=N/NC(=O)COc1ccc(C)cc1Br,inactive: -14.1%,–
CCN1C(=S)SC(=O)C1=C1C=C(C)N(CCO)C(C)=C1,–,"inconclusive: 3.66 µM [activator, full curve]"
Cc1ccc(-n2c(C)nc3oc4ccccc4c(=O)c3c2=O)cc1,inactive: 0%,–
N=C(N)SCCN,inactive: 0.816%,–
Cc1sc2ncn(CC(=O)N(CC(=O)NC3CCCC3)Cc3cccs3)c(=O)c2c1C,–,"inconclusive: 23.1 µM [inhibitor, partial curve]"
O=C(CN(C(=O)c1csnn1)c1ccc(Cl)cc1)NCc1ccc2c(c1)OCO2,inactive: 2.41%,–
O=C1/C(=C/c2cccc(F)c2)CSc2sccc21,inactive: 0.99%,–
CCN(CC)c1ccc(/C=C(/C#N)c2nc3ccccc3[nH]2)c(OC(C)C)c1,–,"inconclusive: 3.66 µM [activator, partial curve, poor fit]"
COc1ccc(Nc2nc(-c3ccccc3)nc3ccccc23)cc1,–,active: 20.6 µM
CCCS(=O)(=O)N1CCCC(C(=O)NCCCN2CCN(c3ccccc3F)CC2)C1 (centres undefined),inactive: 4.96%,–
Cc1cccc(C(=O)Nc2cccc3cccnc23)c1,–,"inconclusive: 18.3 µM [activator, single point]"
Cc1ccc(OCc2nnc(SC(C)C(=O)O)n2-c2ccccc2)cc1 (centres undefined),inactive: 0.467%,–
CC1CN(Cc2nc3c(c(=O)[nH]c(=O)n3C)n2CC(N)=O)CC(C)O1 (centres undefined),–,"inconclusive: 23.1 µM [activator, partial curve, poor fit]"
COc1ccc(Cl)cc1C(=O)NNC(=O)c1ccc(F)c(S(=O)(=O)N2CCOCC2)c1,–,"inconclusive: 25.9 µM [inhibitor, partial curve, poor fit]"
COc1cccc(CNC(=O)CCC2CCCN(C(=O)c3ccccc3N(C)C)C2)c1 (centres undefined),inactive: -19.1%,–
COc1ccc(-c2cc(C(=O)Nc3cccc(S(=O)(=O)NCc4ccco4)c3)c3ccccc3n2)cc1OC,–,active: 5.17 µM
NS(=O)(=O)c1cccc(NC(=O)c2cccnc2Oc2ccccc2)c1,–,"inconclusive: 4.61 µM [inhibitor, partial curve, poor fit]"
Cc1cc(NC(=O)CN(C)CC(=O)Nc2ccc(Cl)cc2)no1,inactive: 4.53%,–
Cc1ccc(/C=C/C(=O)NCc2cccs2)c(C)c1,–,"inconclusive: 18.3 µM [activator, partial curve]"
O=C(CSc1ncnc2[nH]ncc12)Nc1cccc(Oc2ccccc2)c1,inactive: 3.01%,–
CS(=O)(=O)N1CCN(C2C3CC4CC(C3)CC2C4)CC1 (centres undefined),–,"inconclusive: 16.4 µM [inhibitor, partial curve, poor fit]"
CCOC(=O)[C@H]1[C@H]2COc3ccc(C)cc3[C@@H]2N2C(=O)c3ccc(Cl)cc3NC(=O)[C@@]12C,inactive: 16.1%,–
C/C(=N\NC(=O)c1cc(C)[nH]n1)c1ccc(-c2ccccc2)cc1,–,"inconclusive: 8.2 µM [activator, partial curve, poor fit]"
O=C(COC(=O)CCN=C1NS(=O)(=O)c2ccccc21)NC1CCCCCCC1,–,"inconclusive: 18.3 µM [activator, single point]"
O=C(NC(=S)NCC1COc2ccccc2O1)c1ccccc1 (centres undefined),inactive: -6.37%,–

# 3 structures out of the list, ordered by heavy-atom count, low to high.
SMILES,"activity change, negative = inhibition",Potency
Cc1ccc(/C=C/C(=O)NCc2cccs2)c(C)c1,–,"inconclusive: 18.3 µM [activator, partial curve]"
O=C(CN(C(=O)c1csnn1)c1ccc(Cl)cc1)NCc1ccc2c(c1)OCO2,inactive: 2.41%,–
CCCS(=O)(=O)N1CCCC(C(=O)NCCCN2CCN(c3ccccc3F)CC2)C1 (centres undefined),inactive: 4.96%,–

# Further compounds follow.

SMILES,"activity change, negative = inhibition",Potency
N#Cc1c(/N=C/c2cccs2)sc2c1CCC2,–,"inconclusive: 6.51 µM [activator, partial curve]"
CCOP(=O)(OCC)/C(=N/OC(=O)c1ccc(OC)cc1)C(N)=O,–,"inconclusive: 4.11 µM [activator, full curve, poor fit]"
O=C(NC(=S)Nc1nc2c(s1)CCCC2)c1ccc(C(=O)c2ccccc2)cc1,–,"inconclusive: 9.2 µM [inhibitor, partial curve]"
COc1ccccc1C(=O)NNC(=O)c1ccc(Br)cc1,–,"inconclusive: 13 µM [activator, partial curve, poor fit]"
CCn1c(SCc2cccc(C)c2)nnc1-c1ccccc1,inactive: 5.87%,–
COc1ccc(S(=O)(=O)Nc2cccc(-c3ccc4nncn4n3)c2)cc1F,inactive: -6.54%,–
O=C(/C=C/c1ccccc1)Nc1cccnc1Oc1ccccc1F,inactive: 4.5%,–
O=C(c1cc(-c2ccccc2)on1)N1CCN(C(=O)c2ccco2)CC1,–,"inconclusive: 11.6 µM [activator, partial curve, poor fit]"
COc1ccc(C(C)=O)cc1COc1ccc(Cl)cc1Cl,–,"inconclusive: 20.6 µM [inhibitor, partial curve, poor fit]"
CCN(CC)C(=O)COc1ccc(N(C)S(=O)(=O)c2ccc(NC(C)=O)cc2)cc1,–,"inconclusive: 16.4 µM [inhibitor, single point]"
CCOC(=O)N=Nc1c2ccccc2c2nc3no[nH]c3nc12,–,active: 1.46 µM
COc1ccc(S(=O)(=O)N2CCCCCC2)cc1NC(=O)c1ccccc1S(C)(=O)=O,inactive: 7.84%,–
COc1ccc(C(CC(=O)NCc2ccccc2)C(C)C)cc1 (centres undefined),inactive: -4.96%,–
COC(=O)C1=C(C)N=C2SC(C#N)=C(N)N2C1c1ccc(OCc2ccccc2)cc1 (centres undefined),inactive: -3.94%,–
CCN(Cc1ccccc1)C(=O)c1cc(-c2ccc(OC)c(OC)c2)nc2ccccc12,inactive: 3.59%,–
COc1cccc(OCC(=O)NN=C2c3ccccc3-c3ccccc32)c1,–,"inconclusive: 29.1 µM [inhibitor, partial curve, poor fit]"
CC1=CCC2COC(c3ccc[n+](Cc4ccccc4)c3)C1C2 (centres undefined),inactive: -19.5%,–
CC(=O)c1ccc(NC(=O)Nc2ccc3c(c2)N(C)C(=O)CS3)cc1,–,active: 18.4 µM
O=C(Nc1ccc2ccccc2c1)c1ccccc1O,–,"inconclusive: 0.326 µM [activator, full curve]"
Cc1cc(C)c(Cn2c3ccccc3c3cnn(CC(=O)NCCN4CCOCC4)c(=O)c32)c(C)c1,inactive: -0.757%,–
CC[n+]1c(/C=C/c2c[nH]c3ccccc23)ccc2cc(C)ccc21,–,"inconclusive: 6.51 µM [inhibitor, partial curve]"
COc1ccccc1C(=O)COC(=O)CCNS(=O)(=O)c1ccc(C)c(C)c1,inactive: 2.35%,–
Cc1ccc(NC2CCCN(C(=O)CSc3ccccn3)C2)cc1C (centres undefined),inactive: 2.27%,–
CC1CCN(c2ccccc2NC(=O)c2cc([N+](=O)[O-])ccc2N2CCOCC2)CC1,–,"inconclusive: 18.3 µM [inhibitor, single point]"
